Measured values: patent EP0328090A2 (priority 1988, dated 1989)
Not every detail of the peptide structures is certain; ends, links or a residue may be inferred. Non-standard residues stand in square brackets, D forms with d. Residues, ends and D or L forms follow the SMILES beside them. NMeS = CN[C@@H](CO)C(=O)O; Sar = CNCC(=O)O

The compounds below were run on serum LH concentration (assay: In vivo LH release in castrated rats (serum LH by RIA)). Details: i.v., dose producing half-maximal time integrated LH release.
Method: The biological activities of the compounds of the invention are determined by the following assays: • (a) Receptor Binding. A radioligand receptor binding assay is performed in a similar way to that described in the literature (J. Marion et al., Mol. Pharmacol. 19 399 (1981)). […] The radioligand (50pM), receptors, and compounds to be tested are coincubated for 2 hours at 4°C. Bound ligand is separated from free ligand via centrifugation and aspiration. […] This assay has been adopted from the literature (H.A. Jinnah and P.M. Conn, Endrocrinology 118 2599 (1986)). Rat pituitaries are removed from immature female rats, minced, and dissociated with collagenase/hyaluronidase. They are allowed to attach to 48-well microtiter plates for 48-72 hours, then are exposed to test compounds for 3 hours at 37°C. The medium is assayed for released LH by RIA (radioimmunoassay). […] The compound to be tested is administered to castrated rats intraveneously and the serum LH concentration at various time points is measured by RIA. The time inteorated LH response is calculated and the dose producing half-maximal LH release (ED₅₀) is reported. • (d) Stability against enzymatic degradation. The intestinal stability of the compounds of the invention was determined using in vitro rat jejunum in a reperfusion system. The fractional mucosal loss was an indicator of the relative rate if degradation of the compounds thirty minutes after introduction of the luminal bath.

In order of rising ED₅₀:
1. CC(C)C[C@H](NC(=O)[C@@H](Cc1ccc2ccccc2c1)NC(=O)[C@H](Cc1ccc(O)cc1)NC(=O)[C@H](CO)N(C)C(=O)[C@H](Cc1c[nH]c2ccccc12)NC(=O)[C@H](Cc1c[nH]cn1)NC(=O)[C@@H]1CCC(=O)N1)C(=O)N[C@@H](CCCNC(=N)N)C(=O)N1CCC[C@H]1C(=O)NCC(N)=O [Ex. 3, (pyro)Glu-His-Trp-N-Me-Ser-Tyr-D-(2)-Nal-Leu-Arg-Pro-Gly-NH₂]  0.129 µg/kg
2. CCNC(=O)[C@@H]1CCCN1C(=O)[C@H](CCCNC(=N)N)NC(=O)[C@H](CC(C)C)NC(=O)[C@@H](Cc1c[nH]c2ccccc12)NC(=O)[C@H](Cc1ccc(O)cc1)NC(=O)[C@H](CO)N(C)C(=O)[C@H](Cc1c[nH]c2ccccc12)NC(=O)[C@H](Cc1c[nH]cn1)NC(=O)CN(C)C(C)=O [Ex. 14, N-AcSar-His-Trp-N-Me-Ser-Tyr-D-Trp-Leu-Arg-Pro-NHEt] (Ac-[Sar]HW[NMeS]Y[dW]LRP-NHEt)  0.39 µg/kg
3. CCNC(=O)[C@@H]1CCCN1C(=O)[C@H](CCCNC(=N)N)NC(=O)[C@H](CC(C)C)NC(=O)[C@@H](Cc1c[nH]c2ccccc12)NC(=O)[C@H](Cc1ccc(O)cc1)NC(=O)[C@H](CO)N(C)C(=O)[C@H](Cc1c[nH]c2ccccc12)NC(=O)[C@H](Cc1c[nH]cn1)NC(=O)[C@@H]1CCC(=O)N1 [Ex. 15, (pyro)Glu-His-Trp-N-Me-Ser-Tyr-D-Trp-Leu-Arg-Pro-NHEt]  1.38 µg/kg
